The supplement of paper PMC10331698
± gives the standard deviation of the averaged measurements. Most entries show no effect beyond the scatter of the controls.

How the values were obtained:
Assay in all cases: level (log10 ratio to DMSO vehicle control); higher = higher biomarker level / cell amount than vehicle control
[1] = compound: CC(C)(C)C(=O)CC(=O)C(F)(F)C(F)(F)C(F)(F)F [(Heptafluorobutanoyl)pivaloylmethane]; conditions: 2200 nM; in DMSO
Description: (§1)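 BioMAP Diversity Plus panel of 12 human primary cell co-culture systems (3C, 4H, LPS, SAg, BT, BF4T, BE3C, CASM3C, HDF3CGF, KF3CT, MyoF, Mphg). Compounds were added 1 h before stimulation and left for 24 h (MyoF 48 h; BT 72 h for soluble read-outs or 6 d for IgG). Biomarkers were read by ELISA, cytotoxicity by SRB, PBMC viability and proliferation by Alamar Blue. Each well value was divided by the mean of 8 DMSO control wells on the same plate and log10 transformed; duplicate blinded samples were tested at 4 concentrations.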

1-(Perfluorohexyl)octane = compound: CCCCCCCCC(F)(F)C(F)(F)C(F)(F)C(F)(F)C(F)(F)C(F)(F)F [1-(Perfluorohexyl)octane]; conditions: in DMSO
Description: as §1

[2] = compound: CCN(CCO)S(=O)(=O)C(F)(F)C(F)(F)C(F)(F)C(F)(F)C(F)(F)C(F)(F)C(F)(F)C(F)(F)F [N-Ethyl-N-(2-hydroxyethyl)perfluorooctanesulfonamide]; conditions: in DMSO
Description: as §1

[3] = compound: CN(C(=O)C(F)(F)C(F)(F)C(F)(F)F)[Si](C)(C)C [N-Methyl-N-trimethylsilylheptafluorobutyramide]; conditions: 2200 nM; in DMSO
Description: as §1

[4] = compound: Cc1ccc(S(=O)(=O)OCC(F)(F)C(F)(F)C(F)(F)C(F)(F)C(F)(F)C(F)F)cc1 [1H,1H,7H-Perfluoroheptyl 4-methylbenzenesulfonate]; conditions: 2200 nM; in DMSO
Description: as §1

[5] = compound: FC(F)(F)C(F)(F)C(F)(F)C(F)(F)C(F)(F)C(F)(F)CC1CO1 [3-(Perfluorohexyl)-1,2-epoxypropane]; conditions: 2200 nM; in DMSO
Description: as §1

Heptafluorobutyramide = compound: NC(=O)C(F)(F)C(F)(F)C(F)(F)F [Heptafluorobutyramide]; conditions: 2200 nM; in DMSO
Description: as §1

[6] = compound: NCC(F)(F)C(F)(F)C(F)(F)C(F)(F)C(F)(F)C(F)(F)C(F)(F)F [1H,1H-Perfluorooctylamine]; conditions: 2200 nM; in DMSO
Description: as §1

Octafluoroadipic acid = compound: O=C(O)C(F)(F)C(F)(F)C(F)(F)C(F)(F)C(=O)O [Octafluoroadipic acid]; conditions: 2200 nM; in DMSO
Description: as §1

[7] = compound: O=C(O)C(F)(F)C(F)(F)C(F)(F)C(F)(F)C(F)(F)C(F)(F)C(F)(F)C(F)(F)C(F)(F)C(F)F [11-H-Perfluoroundecanoic acid]; conditions: 2200 nM; in DMSO
Description: as §1

Perfluoroheptanoic acid = compound: O=C(O)C(F)(F)C(F)(F)C(F)(F)C(F)(F)C(F)(F)C(F)(F)F [Perfluoroheptanoic acid]; conditions: in DMSO
Description: as §1

Perfluoropentanoic acid = compound: O=C(O)C(F)(F)C(F)(F)C(F)(F)C(F)(F)F [Perfluoropentanoic acid]; conditions: in DMSO
Description: as §1

[8] = compound: O=C(O)C(F)(F)C(F)(F)C(F)(F)OC(F)(F)F [Perfluoro(4-methoxybutanoic) acid]; conditions: 2200 nM; in DMSO
Description: as §1

[9] = compound: O=S(=O)(O)CCC(F)(F)C(F)(F)C(F)(F)C(F)(F)C(F)(F)C(F)(F)C(F)(F)C(F)(F)F [8:2 Fluorotelomer sulfonic acid]; conditions: in DMSO
Description: as §1

1H,1H-Heptafluorobutanol = compound: OCC(F)(F)C(F)(F)C(F)(F)F [1H,1H-Heptafluorobutanol]; conditions: 2200 nM; in DMSO
Description: as §1

[10] = compound: OCCC(F)(F)C(F)(F)C(F)(F)C(F)(F)C(F)(F)C(F)(F)F [6:2 Fluorotelomer alcohol]; conditions: 2200 nM; in DMSO
Description: as §1

Test System | level (log10) [1] | level (log10) (1-(Perfluorohexyl)octane; 740 nM) | level (log10) (1-(Perfluorohexyl)octane; 2200 nM) | level (log10) ([2]; 2200 nM) | level (log10) ([2]; 6700 nM) | level (log10) ([2]; 20000 nM) | level (log10) [3] | level (log10) [4] | level (log10) [5] | level (log10) (Heptafluorobutyramide) | level (log10) [6] | level (log10) (Octafluoroadipic acid) | level (log10) [7] | level (log10) (Perfluoroheptanoic acid; 2200 nM) | level (log10) (Perfluoroheptanoic acid; 6700 nM) | level (log10) (Perfluoroheptanoic acid; 20000 nM) | level (log10) (Perfluoroheptanoic acid; 60000 nM) | level (log10) (Perfluoropentanoic acid; 2200 nM) | level (log10) (Perfluoropentanoic acid; 6700 nM) | level (log10) (Perfluoropentanoic acid; 20000 nM) | level (log10) (Perfluoropentanoic acid; 60000 nM) | level (log10) [8] | level (log10) ([9]; 2200 nM) | level (log10) ([9]; 6700 nM) | level (log10) ([9]; 20000 nM) | level (log10) ([9]; 60000 nM) | level (log10) (1H,1H-Heptafluorobutanol) | level (log10) [10]
BF4T:MMP-3 | -0.009 ± 0.014 | 0.0125 ± 0.016 | -0.0045 ± 0.005 | 0.01 ± 0.037 | -0.0145 ± 0.025 | 0.0505 ± 0.023 | 0.0005 ± 0.044 | -0.003 ± 0.013 | 0.0455 ± 0.049 | 0.0165 ± 0.011 | 0.022 ± 0.068 | 0.006 ± 0.025 | 0.0175 ± 0.044 | 0.0305 ± 0.083 | -0.027 ± 0.023 | -0.011 | 0.046 ± 0.048 | -0.0015 ± 0.047 | -0.015 ± 0.011 | -0.0145 ± 0.0092 | -0.0045 ± 0.04 | 0.023 ± 0.025 | 0.016 ± 0.044 | -0.0095 ± 0.043 | 0.027 ± 0.034 | 0.0755 ± 0.0078 | 0.007 ± 0.0085 | 0.01 ± 0.03
BF4T:MMP-9 | -0.0005 ± 0.083 | 0.0005 ± 0.012 | -0.0125 ± 0.0021 | 0.0265 ± 0.036 | -0.012 ± 0.014 | -0.032 ± 0.0014 | -0.003 ± 0.047 | -0.0175 ± 0.019 | 0.02 ± 0.024 | 0.0265 ± 0.036 | 0.003 ± 0.025 | 0.019 ± 0.033 | -0.057 ± 0.042 | 0.031 ± 0.028 | 0.0145 ± 0.016 | 0.0445 ± 0.022 | 0.103 ± 0.054 | -0.0005 ± 0.029 | -0.0115 ± 0.0064 | -0.0115 ± 0.019 | -0.0005 ± 0.035 | 0.031 ± 0.0014 | 0.0405 ± 0.018 | 0.0065 ± 0.015 | -0.003 ± 0.0014 | -0.0215 ± 0.005 | -0.0115 ± 0.049 | 0.0195 ± 0.04
BF4T:PAI-I | 0.001 ± 0.016 | 0.0115 ± 0.025 | 0.0075 ± 0.032 | 0.0075 ± 0.025 | 0.014 ± 0.0014 | -0.0105 ± 0.00071 | 0.0035 ± 0.03 | 0.011 ± 0.034 | 0.0115 ± 0.022 | 0.0095 ± 0.0078 | -0.003 ± 0.04 | 0.0015 ± 0.022 | -0.0805 ± 0.021 | 0.01 ± 0.0099 | -0.0045 ± 0.019 | 0.0005 ± 0.025 | 0.0015 ± 0.028 | 0.0085 ± 0.018 | -0.003 ± 0.0014 | -0.005 ± 0.0028 | 0.007 ± 0.011 | 0.008 ± 0.0057 | 0.0085 ± 0.032 | 0.005 ± 0.0099 | 0.002 ± 0.011 | 0.009 ± 0.0042 | 0.006 ± 0.0042 | 0.017 ± 0.024
BF4T:SRB | 0.002 ± 0.02 | 0 | -0.001 ± 0.0014 | 0.009 ± 0.017 | -0.016 ± 0.0071 | -0.027 ± 0.018 | -0.0045 ± 0.0035 | -0.002 ± 0.0014 | 0.001 ± 0.0042 | -0.0055 ± 0.0035 | 0.0035 ± 0.016 | -0.0055 ± 0.012 | -0.011 ± 0.0042 | -0.0015 ± 0.012 | -0.0085 ± 0.00071 | -0.0115 ± 0.00071 | -0.0035 ± 0.018 | 0.003 ± 0.0099 | -0.011 ± 0.0085 | -0.008 ± 0.0071 | 0.001 ± 0.0099 | -0.002 ± 0.0042 | 0.0205 ± 0.047 | 0.0035 ± 0.015 | -0.002 ± 0.013 | -0.0005 ± 0.0078 | 0.006 ± 0.028 | -0.0035 ± 0.015
BF4T:tPA | -0.004 ± 0.028 | 0.0095 ± 0.039 | 0.001 ± 0.025 | 0.059 ± 0.02 | 0.0595 ± 0.0064 | 0.067 ± 0.0028 | 0.0125 ± 0.018 | -0.0095 ± 0.026 | 0.013 ± 0.082 | 0.009 ± 0.024 | 0.0065 ± 0.077 | 0.0125 ± 0.033 | -0.0805 ± 0.0035 | 0.0385 ± 0.067 | -0.0125 ± 0.005 | -0.0145 ± 0.015 | 0.004 ± 0.073 | -0.0015 ± 0.0078 | -0.0295 ± 0.005 | -0.0215 ± 0.029 | -0.009 ± 0.061 | 0.015 ± 0.027 | -0.0005 ± 0.063 | -0.0045 ± 0.028 | -0.0525 ± 0.0021 | -0.0465 ± 0.016 | 0.0155 ± 0.018 | 0.036 ± 0.081
BF4T:uPA | -0.0115 ± 0.00071 | -0.0045 ± 0.00071 | -0.012 ± 0.0028 | 0.011 ± 0.0099 | 0.008 ± 0.0028 | 0.0055 ± 0.012 | -0.0115 ± 0.023 | 0.0075 ± 0.03 | 0.0165 ± 0.05 | 0.007 ± 0.0085 | 0.0025 ± 0.042 | 0.0065 ± 0.011 | -0.01 ± 0.021 | 0.007 ± 0.038 | -0.017 ± 0.0057 | -0.0115 ± 0.012 | 0.009 ± 0.0085 | -0.0085 ± 0.019 | -0.0315 ± 0.029 | -0.031 ± 0.023 | -0.0175 ± 0.033 | 0.0015 ± 0.0035 | -0.001 ± 0.023 | 0.012 ± 0.0085 | 0.0055 ± 0.00071 | 0.0175 ± 0.0092 | -0.004 ± 0.0042 | 0.004 ± 0.011
BT:B cell Proliferation | -0.002 ± 0.09 | 0.0045 ± 0.015 | 0.0065 ± 0.0035 | 0.017 ± 0.061 | 0.0165 ± 0.005 | -0.0405 ± 0.059 | -0.001 ± 0.0057 | 0.003 ± 0.021 | 0.018 ± 0.0071 | -0.005 ± 0.034 | -0.001 ± 0.0028 | 0.025 ± 0.0042 | 0.035 ± 0.017 | 0.031 ± 0.0085 | 0.018 ± 0.0085 | 0.0145 ± 0.033 | 0.061 ± 0.028 | 0.02 ± 0.061 | 0.009 ± 0.0057 | 0.0215 ± 0.06 | 0.0275 ± 0.012 | 0.0225 ± 0.005 | 0.0345 ± 0.0078 | 0.016 ± 0.016 | 0.0415 ± 0.005 | 0.0475 ± 0.033 | 0.0115 ± 0.036 | 0.0115 ± 0.025
BT:PBMC Cytotoxicity | 0.0195 ± 0.032 | -0.0175 ± 0.025 | -0.012 ± 0.021 | 0.0065 ± 0.025 | -0.003 ± 0.027 | -0.0615 ± 0.0035 | 0.002 ± 0.0057 | -0.0025 ± 0.005 | -0.0195 ± 0.0021 | 0.0155 ± 0.0092 | -0.017 ± 0.0028 | 0.0085 ± 0.015 | -0.029 ± 0.04 | -0.028 ± 0.017 | -0.0175 ± 0.0064 | 0.001 ± 0.0057 | 0.063 ± 0.0014 | 0.02 ± 0.04 | 0.0075 ± 0.035 | -0.0055 ± 0.0078 | 0.0255 ± 0.013 | 0.019 ± 0.021 | 0.0195 ± 0.035 | 0.006 ± 0.018 | 0.0115 ± 0.005 | 0.0505 ± 0.018 | 0.012 ± 0.025 | -0.0195 ± 0.0035

Some entries already given with just level (log10) [1] and level (log10) ([9]; 60000 nM):
Test System,level (log10) [1],level (log10) ([9]; 60000 nM)
BF4T:MMP-9,-0.0005 ± 0.083,-0.0215 ± 0.005
BF4T:PAI-I,0.001 ± 0.016,0.009 ± 0.0042
